Measurements from the supplement of paper PMC7877785.
± gives the uncertainty stated by the source. Many entries were measured with a wide error.

Experiment: self-splicing fitness, log relative to wild type (ln ratio); higher = more splicing; Tetrahymena group I intron in knt gene, E. coli kanamycin selection, DiMSum; sequences stand for … in CUCUCU…GGAGGGAAAAGUUAUCAGGCAUGCACCUGGUAGCUAGUCUUUAAACCAAUAGAUUGCAUCGGUUUAAAAGGCAAGACCGUCAAAUUGCGGGAAAGGGGUCAACAGCCGUUCAGUACCAAGUCUCAGGGGAAACUUUGAGAUGGCCUUGCAAAGGGUAUGGUAAUAAGCUGACGGACAUGGUCCUAACCACGCAGCCAAGUCCUAAGUCAACAGAUCUUCUGUUGAUAUGGAUGCAGUUCACAGACUAAAUGUCGGUCGGGGAAGAUGUAUUCUUCUCAUAAGAUAUAGUCGGACCUCUCCUUAAUGGGAGCUAGCGGAUGAAGUGAUGCAACACUGGAGCCGCUGGGAACUAAUUUGUAUGCGAAAGUAUAUUGAUUAGUUUUGGAGUACUCGUGGUCG
Procedure, shortened: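 A randomised library covering all eight P1ex-region intron nucleotides was built with the intron in the knt kanamycin-resistance gene on pET-22b(+) and held in E. coli BL21(DE3). Cells were grown overnight at 37°C or 30°C on LB agar, with or without 25 μg/mL kanamycin, plus 100 μg/mL carbenicillin, 50 μM IPTG and 0.2% rhamnose, and pooled colonies were amplicon-sequenced on an Illumina HiSeq 2500. DiMSum fitness is the error-weighted combination of wild-type-normalised replicate fold changes, kanamycin versus none.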

Sequence	self-splicing fitness (ln) (30 °C)	self-splicing fitness (ln) (37 °C)
AGGGAGCAAUAUUACGAACU	-3.41 ± 0.75	-2.05 ± 0.78
AUAAAGCAAUAUUACGGCUG	0.334 ± 0.069	0.483 ± 0.1
AUUGAGCAAUAUUACGUGGG	-4.84 ± 0.58	–
GAGGAGCAAUAUUACGUUGU	-4.89 ± 0.51	–
CCGGAGCAAUAUUACGUGAC	–	-1.43 ± 0.55
GCGUAGCAAUAUUACGCUUG	-3.64 ± 0.52	–
AGUGAGCAAUAUUACGCUGA	-3.8 ± 0.6	-3.18 ± 1
AAGAAGCAAUAUUACGGCUU	-2.42 ± 0.14	-3.23 ± 0.24
GGGUAGCAAUAUUACGAAGC	-1.06 ± 1	–
UUGUAGCAAUAUUACGCAAC	–	-1.53 ± 0.61
CCUGAGCAAUAUUACGUCAC	-3.46 ± 0.61	-1.54 ± 0.31
AGGGAGCAAUAUUACGAAGG	–	-2.68 ± 0.75
AUAUAGCAAUAUUACGAAUC	-3.63 ± 0.55	-2.87 ± 0.53
CAGUAGCAAUAUUACGCUGU	-2.72 ± 0.17	-2.99 ± 0.28
CUGUAGCAAUAUUACGUGAA	-5.2 ± 1	–
CGGCAGCAAUAUUACGAAGC	-3.28 ± 0.55	-2.39 ± 0.77
ACCGAGCAAUAUUACGCCAC	–	-0.987 ± 0.57
UUAUAGCAAUAUUACGAGAA	-2.3 ± 0.8	–
UGAGAGCAAUAUUACGCAAC	-1.74 ± 0.84	–
UUCAAGCAAUAUUACGGAAU	-5.35 ± 0.51	–
UCGGAGCAAUAUUACGGGUC	-3.32 ± 0.53	-2.52 ± 0.55
AACGAGCAAUAUUACGGAUG	–	-3.46 ± 0.59
UGAGAGCAAUAUUACGAGCC	–	-0.914 ± 0.63

Sequence	self-splicing fitness (ln) (30 °C)	self-splicing fitness (ln) (37 °C)
UACGAGCAAUAUUACGCUAC	-3.18 ± 0.5	-1.18 ± 0.92
UUAGAGCAAUAUUACGAGGC	-2.24 ± 0.55	-2.5 ± 0.55
CGAUAGCAAUAUUACGCGGC	–	-4.27 ± 1
GGAUAGCAAUAUUACGCGGC	-3.57 ± 1	-2.98 ± 0.53
GUCAAGCAAUAUUACGAACC	–	-2.49 ± 0.63
CGGAAGCAAUAUUACGGAGA	-3.06 ± 0.53	-4.15 ± 0.51
GGAUAGCAAUAUUACGCUAU	-2.42 ± 0.59	–
UGGGAGCAAUAUUACGGUCC	–	-1.08 ± 0.52
UCUAAGCAAUAUUACGAAAA	-2.82 ± 0.55	–
CGCUAGCAAUAUUACGUCCC	-2.63 ± 0.16	-1.54 ± 0.19
UCAAAGCAAUAUUACGACGU	-0.985 ± 0.063	0.289 ± 0.069
AGAAAGCAAUAUUACGCUAC	-3.25 ± 0.39	-3.8 ± 0.73
AGAGAGCAAUAUUACGCGCU	–	-0.983 ± 0.68
AGGGAGCAAUAUUACGACCC	–	-1.52 ± 0.59
GGAGAGCAAUAUUACGGAGC	-4.88 ± 1	-2.8 ± 0.53
GUUUAGCAAUAUUACGGUGG	-4.14 ± 0.51	–
CGGUAGCAAUAUUACGGAAC	-4.39 ± 0.72	–
UUCUAGCAAUAUUACGUUCC	-3.49 ± 0.61	-2.8 ± 0.54
AGCUAGCAAUAUUACGACCC	-0.116 ± 0.54	-0.711 ± 0.51
AAAUAGCAAUAUUACGAGAC	–	-0.595 ± 1.4
UGUUAGCAAUAUUACGUAUU	-3.88 ± 0.73	–
AGAGAGCAAUAUUACGGGUG	–	-2.54 ± 0.54
GGCGAGCAAUAUUACGAGGG	–	-2.23 ± 0.56

An excerpt of these results, comma-delimited.
Sequence,self-splicing fitness (ln) (30 °C),self-splicing fitness (ln) (37 °C)
UUCAAGCAAUAUUACGGAAU,-5.35 ± 0.51,–
UCGGAGCAAUAUUACGGGUC,-3.32 ± 0.53,-2.52 ± 0.55
AACGAGCAAUAUUACGGAUG,–,-3.46 ± 0.59
UGAGAGCAAUAUUACGAGCC,–,-0.914 ± 0.63
UACGAGCAAUAUUACGCUAC,-3.18 ± 0.5,-1.18 ± 0.92
UUAGAGCAAUAUUACGAGGC,-2.24 ± 0.55,-2.5 ± 0.55
CGAUAGCAAUAUUACGCGGC,–,-4.27 ± 1
GGAUAGCAAUAUUACGCGGC,-3.57 ± 1,-2.98 ± 0.53
GUCAAGCAAUAUUACGAACC,–,-2.49 ± 0.63
CGGAAGCAAUAUUACGGAGA,-3.06 ± 0.53,-4.15 ± 0.51
GGAUAGCAAUAUUACGCUAU,-2.42 ± 0.59,–
UGGGAGCAAUAUUACGGUCC,–,-1.08 ± 0.52
UCUAAGCAAUAUUACGAAAA,-2.82 ± 0.55,–
CGCUAGCAAUAUUACGUCCC,-2.63 ± 0.16,-1.54 ± 0.19
UCAAAGCAAUAUUACGACGU,-0.985 ± 0.063,0.289 ± 0.069
AGAAAGCAAUAUUACGCUAC,-3.25 ± 0.39,-3.8 ± 0.73
AGAGAGCAAUAUUACGCGCU,–,-0.983 ± 0.68
AGGGAGCAAUAUUACGACCC,–,-1.52 ± 0.59
GGAGAGCAAUAUUACGGAGC,-4.88 ± 1,-2.8 ± 0.53
GUUUAGCAAUAUUACGGUGG,-4.14 ± 0.51,–
CGGUAGCAAUAUUACGGAAC,-4.39 ± 0.72,–
UUCUAGCAAUAUUACGUUCC,-3.49 ± 0.61,-2.8 ± 0.54
AGCUAGCAAUAUUACGACCC,-0.116 ± 0.54,-0.711 ± 0.51
AAAUAGCAAUAUUACGAGAC,–,-0.595 ± 1.4
UGUUAGCAAUAUUACGUAUU,-3.88 ± 0.73,–
AGAGAGCAAUAUUACGGGUG,–,-2.54 ± 0.54
GGCGAGCAAUAUUACGAGGG,–,-2.23 ± 0.56

Continued:

Sequence	self-splicing fitness (ln) (30 °C)	self-splicing fitness (ln) (37 °C)
CAUGAGCAAUAUUACGAAUC	-4.04 ± 0.51	–
GGCCAGCAAUAUUACGCUGG	-3.98 ± 0.27	-2.27 ± 0.24
CGCGAGCAAUAUUACGACGC	–	-1.43 ± 0.87
UUUGAGCAAUAUUACGGCCG	–	-2.64 ± 1.1
AGCGAGCAAUAUUACGGAAA	–	-2.74 ± 1.1
ACCAAGCAAUAUUACGAAGA	-4.11 ± 0.24	-1.56 ± 0.14
UUCUAGCAAUAUUACGAGAC	-4.17 ± 1.1	-1.93 ± 0.57
CCCUAGCAAUAUUACGCAGC	-3 ± 0.17	-3.24 ± 0.35
AGCGAGCAAUAUUACGCUUU	-5.09 ± 1	–
GUCAAGCAAUAUUACGCGGC	-4.89 ± 0.71	-4.61 ± 1
GUUCAGCAAUAUUACGUCCU	-0.606 ± 0.14	0.279 ± 0.17
AGUCAGCAAUAUUACGGGUC	-1.27 ± 0.11	-1.43 ± 0.15
UCAGAGCAAUAUUACGCAGC	-4.1 ± 0.52	-2.69 ± 0.62
GUCUAGCAAUAUUACGCGUC	-2.18 ± 0.099	-0.0852 ± 0.1
GUAUAGCAAUAUUACGUCCG	-2.98 ± 0.18	-1.21 ± 0.17
GAAUAGCAAUAUUACGGCCC	-0.303 ± 0.14	0.174 ± 0.21
UUCGAGCAAUAUUACGCUAU	–	-3.4 ± 1
CCAGAGCAAUAUUACGCCUG	-2.44 ± 0.57	–
GAAGAGCAAUAUUACGGAAC	-4.03 ± 1	–
GGAGAGCAAUAUUACGCCAU	–	-0.408 ± 0.52
UUCGAGCAAUAUUACGUCCG	-3.05 ± 0.24	-1.24 ± 0.28
UUCGAGCAAUAUUACGCCGA	-2.65 ± 0.22	-2.66 ± 0.33
CGCGAGCAAUAUUACGCUCC	-4.33 ± 1	-2.64 ± 1.1

Sequence	self-splicing fitness (ln) (30 °C)	self-splicing fitness (ln) (37 °C)
CUGGAGCAAUAUUACGAACC	-3.63 ± 0.73	–
AGGAAGCAAUAUUACGGUAU	-2.52 ± 0.28	-0.707 ± 0.24
CCGUAGCAAUAUUACGCAAA	-3.13 ± 0.74	-2.24 ± 0.25
CCGGAGCAAUAUUACGGUAC	-2.73 ± 0.22	-2.25 ± 0.4
UCCGAGCAAUAUUACGGCUG	-2.83 ± 0.19	-1.6 ± 0.29
CGAUAGCAAUAUUACGCUAG	-1.18 ± 0.1	-1.52 ± 0.19
CUCAAGCAAUAUUACGACCC	–	-2.72 ± 1
CCUCAGCAAUAUUACGACUC	–	-1.94 ± 0.67
GGUGAGCAAUAUUACGAGAU	-4.65 ± 0.51	–
UACGAGCAAUAUUACGGACU	–	-3.03 ± 0.6
CGUAAGCAAUAUUACGCUAA	-2.9 ± 0.54	-3.71 ± 0.73
AGCGAGCAAUAUUACGAAUC	-4.93 ± 1	-2.34 ± 0.54
CAGGAGCAAUAUUACGACCA	-3.78 ± 0.52	-1.27 ± 0.31
AUGUAGCAAUAUUACGCAAU	-1.49 ± 0.13	-1.01 ± 0.23
GAAGAGCAAUAUUACGCAGC	–	-1.04 ± 0.51
UUCCAGCAAUAUUACGUGGC	-3.11 ± 0.15	-3.15 ± 0.24
CAUUAGCAAUAUUACGUGCA	-2.31 ± 0.28	-3.05 ± 0.74
UGGCAGCAAUAUUACGUGCG	-0.238 ± 0.061	0.163 ± 0.084
GGAUAGCAAUAUUACGGGAG	-5.02 ± 0.59	–
CGCCAGCAAUAUUACGUAAU	-2.67 ± 0.12	-1.71 ± 0.15
CGCCAGCAAUAUUACGUCUA	-4.02 ± 0.51	–
CCCAAGCAAUAUUACGCCAU	-3.28 ± 0.22	-2.5 ± 0.23
